From paper PMC3641083
Results are given in words; binding and its absence hold for the method and conditions named. Binding seen in cells or lysates may run through a third protein. Some binding calls cover weakened binding; strength is not graded here.

Sequences of proteins named here, by UniProt entry; tags and fusion partners are left off.
UniProt P13010: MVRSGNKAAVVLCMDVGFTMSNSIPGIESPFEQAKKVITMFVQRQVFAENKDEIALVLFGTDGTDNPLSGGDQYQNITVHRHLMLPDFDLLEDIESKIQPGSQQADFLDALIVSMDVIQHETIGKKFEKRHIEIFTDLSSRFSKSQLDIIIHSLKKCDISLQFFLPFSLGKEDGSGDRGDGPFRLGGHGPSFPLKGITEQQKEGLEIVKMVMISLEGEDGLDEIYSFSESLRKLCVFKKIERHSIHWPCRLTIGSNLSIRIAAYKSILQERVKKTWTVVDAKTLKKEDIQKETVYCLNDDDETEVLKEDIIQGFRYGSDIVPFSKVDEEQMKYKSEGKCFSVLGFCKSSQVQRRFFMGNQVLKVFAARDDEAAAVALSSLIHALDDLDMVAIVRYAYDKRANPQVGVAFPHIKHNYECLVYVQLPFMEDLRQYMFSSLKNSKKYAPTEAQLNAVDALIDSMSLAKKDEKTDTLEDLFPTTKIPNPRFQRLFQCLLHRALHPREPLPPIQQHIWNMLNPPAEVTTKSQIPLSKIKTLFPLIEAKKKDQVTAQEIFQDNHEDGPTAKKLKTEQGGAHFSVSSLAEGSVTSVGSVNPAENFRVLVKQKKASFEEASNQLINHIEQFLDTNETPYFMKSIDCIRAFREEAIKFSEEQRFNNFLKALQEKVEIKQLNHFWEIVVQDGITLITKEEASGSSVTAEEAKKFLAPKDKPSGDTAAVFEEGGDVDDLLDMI
UniProt P09874: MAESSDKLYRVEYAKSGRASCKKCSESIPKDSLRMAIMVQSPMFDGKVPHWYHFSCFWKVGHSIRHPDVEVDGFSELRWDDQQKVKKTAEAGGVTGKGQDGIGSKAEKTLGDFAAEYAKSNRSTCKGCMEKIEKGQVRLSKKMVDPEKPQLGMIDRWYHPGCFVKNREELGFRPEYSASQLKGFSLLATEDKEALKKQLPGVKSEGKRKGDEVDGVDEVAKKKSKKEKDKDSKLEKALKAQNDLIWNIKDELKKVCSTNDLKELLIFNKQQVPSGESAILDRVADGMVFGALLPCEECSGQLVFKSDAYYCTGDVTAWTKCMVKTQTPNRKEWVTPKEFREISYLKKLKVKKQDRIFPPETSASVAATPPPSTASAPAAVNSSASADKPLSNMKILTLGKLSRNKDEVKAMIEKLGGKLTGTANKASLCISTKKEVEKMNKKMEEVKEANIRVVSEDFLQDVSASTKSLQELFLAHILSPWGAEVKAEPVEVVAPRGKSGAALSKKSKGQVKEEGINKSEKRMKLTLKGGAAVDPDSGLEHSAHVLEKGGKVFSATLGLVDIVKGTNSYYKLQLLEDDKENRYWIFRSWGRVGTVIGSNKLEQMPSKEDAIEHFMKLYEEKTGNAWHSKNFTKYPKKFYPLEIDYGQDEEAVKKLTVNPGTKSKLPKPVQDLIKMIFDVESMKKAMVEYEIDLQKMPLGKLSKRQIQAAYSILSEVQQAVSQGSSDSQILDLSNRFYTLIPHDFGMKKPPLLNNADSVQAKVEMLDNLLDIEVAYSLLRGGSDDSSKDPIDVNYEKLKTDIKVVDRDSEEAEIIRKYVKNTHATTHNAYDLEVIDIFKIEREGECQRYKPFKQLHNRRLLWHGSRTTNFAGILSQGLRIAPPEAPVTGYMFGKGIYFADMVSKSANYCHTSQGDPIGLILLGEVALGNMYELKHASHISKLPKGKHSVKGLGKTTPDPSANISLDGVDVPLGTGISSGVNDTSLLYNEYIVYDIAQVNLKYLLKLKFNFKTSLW
UniProt P78527: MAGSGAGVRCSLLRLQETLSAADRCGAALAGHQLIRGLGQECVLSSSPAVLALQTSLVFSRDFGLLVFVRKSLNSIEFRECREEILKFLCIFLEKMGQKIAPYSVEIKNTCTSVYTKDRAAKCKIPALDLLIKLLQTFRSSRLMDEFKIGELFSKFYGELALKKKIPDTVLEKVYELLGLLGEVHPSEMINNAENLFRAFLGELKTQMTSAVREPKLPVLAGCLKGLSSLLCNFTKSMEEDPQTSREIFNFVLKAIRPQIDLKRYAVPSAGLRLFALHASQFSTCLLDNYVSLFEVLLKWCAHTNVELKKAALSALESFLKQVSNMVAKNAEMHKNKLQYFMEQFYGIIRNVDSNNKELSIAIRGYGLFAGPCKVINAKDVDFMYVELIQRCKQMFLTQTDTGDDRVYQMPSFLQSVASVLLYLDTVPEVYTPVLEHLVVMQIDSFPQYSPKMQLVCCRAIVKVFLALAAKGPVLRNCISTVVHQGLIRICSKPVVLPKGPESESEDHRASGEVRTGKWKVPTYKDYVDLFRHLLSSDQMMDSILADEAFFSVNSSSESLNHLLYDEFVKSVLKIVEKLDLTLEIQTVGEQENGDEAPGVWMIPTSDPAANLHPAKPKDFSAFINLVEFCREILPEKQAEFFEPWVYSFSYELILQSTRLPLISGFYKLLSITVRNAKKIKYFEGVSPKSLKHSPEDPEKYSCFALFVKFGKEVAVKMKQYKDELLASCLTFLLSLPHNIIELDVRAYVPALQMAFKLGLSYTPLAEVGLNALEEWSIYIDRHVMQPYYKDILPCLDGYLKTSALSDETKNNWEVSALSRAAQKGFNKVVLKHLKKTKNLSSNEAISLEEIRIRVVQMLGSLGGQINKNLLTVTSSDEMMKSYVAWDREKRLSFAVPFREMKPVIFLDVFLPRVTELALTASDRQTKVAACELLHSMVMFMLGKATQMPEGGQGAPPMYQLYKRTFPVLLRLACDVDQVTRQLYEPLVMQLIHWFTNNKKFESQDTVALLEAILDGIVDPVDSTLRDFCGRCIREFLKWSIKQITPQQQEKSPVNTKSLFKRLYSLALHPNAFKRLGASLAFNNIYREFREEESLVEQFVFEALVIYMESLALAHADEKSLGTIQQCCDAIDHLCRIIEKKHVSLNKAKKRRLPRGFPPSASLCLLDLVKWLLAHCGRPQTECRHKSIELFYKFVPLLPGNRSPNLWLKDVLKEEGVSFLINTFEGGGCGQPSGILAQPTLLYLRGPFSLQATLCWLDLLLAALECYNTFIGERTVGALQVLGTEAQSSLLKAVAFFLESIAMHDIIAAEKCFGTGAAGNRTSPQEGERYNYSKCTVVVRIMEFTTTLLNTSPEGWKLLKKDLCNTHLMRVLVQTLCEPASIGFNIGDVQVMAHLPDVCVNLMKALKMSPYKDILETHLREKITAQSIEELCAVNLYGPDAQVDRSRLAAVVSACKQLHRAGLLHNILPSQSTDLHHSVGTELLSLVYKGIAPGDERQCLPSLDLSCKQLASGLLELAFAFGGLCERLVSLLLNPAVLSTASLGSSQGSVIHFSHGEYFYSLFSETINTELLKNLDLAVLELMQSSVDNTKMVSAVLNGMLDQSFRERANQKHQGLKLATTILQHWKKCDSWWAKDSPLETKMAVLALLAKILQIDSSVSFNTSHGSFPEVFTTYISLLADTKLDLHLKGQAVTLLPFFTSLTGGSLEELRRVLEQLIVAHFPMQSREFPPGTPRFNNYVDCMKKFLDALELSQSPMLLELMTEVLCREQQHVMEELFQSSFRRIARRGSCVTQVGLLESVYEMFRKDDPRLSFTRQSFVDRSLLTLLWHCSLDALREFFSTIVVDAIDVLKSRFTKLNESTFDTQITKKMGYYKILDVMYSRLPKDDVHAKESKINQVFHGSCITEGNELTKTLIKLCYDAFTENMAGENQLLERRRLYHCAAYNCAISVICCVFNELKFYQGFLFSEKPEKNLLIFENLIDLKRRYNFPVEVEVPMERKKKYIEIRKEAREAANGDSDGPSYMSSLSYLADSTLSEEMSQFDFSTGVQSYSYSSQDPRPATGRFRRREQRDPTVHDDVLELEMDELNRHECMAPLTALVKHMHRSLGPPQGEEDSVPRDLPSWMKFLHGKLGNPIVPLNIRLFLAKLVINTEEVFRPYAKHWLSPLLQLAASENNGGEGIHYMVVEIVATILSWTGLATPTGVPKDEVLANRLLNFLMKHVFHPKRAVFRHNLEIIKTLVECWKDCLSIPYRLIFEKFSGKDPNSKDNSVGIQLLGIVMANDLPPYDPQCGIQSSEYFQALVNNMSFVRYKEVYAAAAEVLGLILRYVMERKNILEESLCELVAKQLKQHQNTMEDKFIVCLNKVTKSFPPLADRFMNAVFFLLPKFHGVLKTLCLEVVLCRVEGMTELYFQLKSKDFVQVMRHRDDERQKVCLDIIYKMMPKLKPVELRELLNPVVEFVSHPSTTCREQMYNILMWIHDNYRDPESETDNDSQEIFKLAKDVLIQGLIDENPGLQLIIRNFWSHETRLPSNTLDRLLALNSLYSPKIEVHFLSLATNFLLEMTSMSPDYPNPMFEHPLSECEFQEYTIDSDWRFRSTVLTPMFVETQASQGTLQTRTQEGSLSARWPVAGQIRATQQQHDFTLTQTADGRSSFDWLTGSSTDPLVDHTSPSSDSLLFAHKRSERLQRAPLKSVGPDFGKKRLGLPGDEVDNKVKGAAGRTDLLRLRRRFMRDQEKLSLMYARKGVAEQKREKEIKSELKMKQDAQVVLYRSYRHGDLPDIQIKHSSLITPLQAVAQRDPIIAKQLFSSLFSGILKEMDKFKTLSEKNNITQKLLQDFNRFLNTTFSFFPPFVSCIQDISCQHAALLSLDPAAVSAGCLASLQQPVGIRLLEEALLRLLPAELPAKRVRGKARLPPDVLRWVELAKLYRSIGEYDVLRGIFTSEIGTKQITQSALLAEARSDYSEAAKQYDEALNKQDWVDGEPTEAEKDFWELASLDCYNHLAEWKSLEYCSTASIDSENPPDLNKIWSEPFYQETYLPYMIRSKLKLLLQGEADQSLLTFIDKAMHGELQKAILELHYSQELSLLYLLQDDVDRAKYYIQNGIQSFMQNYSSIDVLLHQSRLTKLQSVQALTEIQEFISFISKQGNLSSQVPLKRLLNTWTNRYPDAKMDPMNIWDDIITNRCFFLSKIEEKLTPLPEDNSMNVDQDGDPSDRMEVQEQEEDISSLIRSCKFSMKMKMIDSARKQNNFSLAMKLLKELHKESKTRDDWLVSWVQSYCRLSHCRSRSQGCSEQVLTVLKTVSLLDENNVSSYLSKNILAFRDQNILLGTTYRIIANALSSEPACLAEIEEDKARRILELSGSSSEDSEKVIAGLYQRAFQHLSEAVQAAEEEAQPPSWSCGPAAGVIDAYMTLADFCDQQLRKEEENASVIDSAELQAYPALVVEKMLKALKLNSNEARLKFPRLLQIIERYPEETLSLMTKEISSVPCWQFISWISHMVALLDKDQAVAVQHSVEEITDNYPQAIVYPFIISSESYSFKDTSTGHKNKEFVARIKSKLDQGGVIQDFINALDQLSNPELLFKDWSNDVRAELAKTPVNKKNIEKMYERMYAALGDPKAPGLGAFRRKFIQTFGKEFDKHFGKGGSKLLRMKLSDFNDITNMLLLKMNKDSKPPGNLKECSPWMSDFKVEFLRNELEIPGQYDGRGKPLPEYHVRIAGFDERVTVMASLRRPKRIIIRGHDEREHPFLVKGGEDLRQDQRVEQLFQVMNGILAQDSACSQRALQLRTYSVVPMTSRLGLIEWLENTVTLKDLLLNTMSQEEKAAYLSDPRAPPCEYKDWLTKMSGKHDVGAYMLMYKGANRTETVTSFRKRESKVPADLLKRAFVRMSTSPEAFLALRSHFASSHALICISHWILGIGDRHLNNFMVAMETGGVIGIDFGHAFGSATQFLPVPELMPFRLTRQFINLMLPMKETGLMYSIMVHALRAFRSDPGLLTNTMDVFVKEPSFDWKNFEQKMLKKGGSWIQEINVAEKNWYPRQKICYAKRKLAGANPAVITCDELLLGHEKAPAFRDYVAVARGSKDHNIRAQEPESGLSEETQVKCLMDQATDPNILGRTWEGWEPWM

Legend:
[1] = molecular target: Ku80 (human (endogenous in HeLa)) (UniProt P13010); assay: co-IP; HeLa nuclear extract; Protein G-Dynal beads with polyclonal anti-RECQ1 or mouse monoclonal anti-Ku70/80, 4°C, 90 min, three washes with lysis buffer; also with extract pre-incubated with benzonase (50 U/ml, 2 h, 4°C); Western blot
[2] = molecular target: RECQ1 (human (endogenous in HeLa, MO59J, MO59K)) (UniProt P46063); assay: as above

Substance | binding [1] | binding [2]
PARP-1 (from UniProt P09874 1-1014) | binds | 
DNA-PKcs (from UniProt P78527 1-4128) |  | no binding
